According to PMC6051998:
These are yes or no findings as the source states them, for the method shown. Some entries that bind do so weakly or less than the wild type. For some assays here: Where a sequence is shown, tags or fusion partners need not be part of it.

B1: full-length Dyn1 (dynamin 1) (protein, UniProt Q05193 1-864)
chain: MGNRGMEDLIPLVNRLQDAFSAIGQNADLDLPQIAVVGGQSAGKSSVLENFVGRDFLPRGSGIVTRRPLVLQLVNATTEYAEFLHCKGKKFTDFEEVRLEIEAETDRVTGTNKGISPVPINLRVYSPHVLNLTLVDLPGMTKVPVGDQPPDIEFQIRDMLMQFVTKENCLILAVSPANSDLANSDALKVAKEVDPQGQRTIGVITKLDLMDEGTDARDVLENKLLPLRRGYIGVVNRSQKDIDGKKDITAALAAERKFFLSHPSYRHLADRMGTPYLQKVLNQQLTNHIRDTLPGLRNKLQSQLLSIEKEVEEYKNFRPDDPARKTKALLQMVQQFAVDFEKRIEGSGDQIDTYELSGGARINRIFHERFPFELVKMEFDEKELRREISYAIKNIHGIRTGLFTPDMAFETIVKKQVKKIREPCLKCVDMVISELISTVRQCTKKLQQYPRLREEMERIVTTHIREREGRTKEQVMLLIDIELAYMNTNHEDFIGFANAQQRSNQMNKKKTSGNQDEILVIRKGWLTINNIGIMKGGSKEYWFVLTAENLSWYKDDEEKEKKYMLSVDNLKLRDVEKGFMSSKHIFALFNTEQRNVYKDYRQLELACETQEEVDSWKASFLRAGVYPERVGDKEKASETEENGSDSFMHSMDPQLERQVETIRNLVDSYMAIVNKTVRDLMPKTIMHLMINNTKEFIFSELLANLYSCGDQNTLMEESAEQAQRRDEMLRMYHALKEALSIIGDINTTTVSTPMPPPVDDSWLQVQSVPAGRRSPTSSPTPQRRAPAVPPARPGSRGPAPGPPPAGSALGGAPPVPSRPGASPDPFGPPPQVPSRPNRAPPGVPSRSGQASPSRPESPRPPFDL
B2: Dyn1 PH domain (isolated, untagged) (domain or fragment, UniProt Q05193 519-625)
chain: LVIRKGWLTINNIGIMKGGSKEYWFVLTAENLSWYKDDEEKEKKYMLSVDNLKLRDVEKGFMSSKHIFALFNTEQRNVYKDYRQLELACETQEEVDSWKASFLRAGV

Assays:
[1] = target: full-length Dyn1 (dynamin 1) (UniProt Q05193); assay: negative-stain EM; Dyn1 (2 μM final) incubated with 10 mol% PIP2-containing NT (50 μM total lipid) in the absence and presence of the isolated Dyn1 PH domain (150 μM); both purified
[2] = target: Dyn1 PH domain (isolated, untagged) (UniProt Q05193); assay: dynamic light scattering; untagged protein at 90 μM, 50 μl, room temperature, Dynapro Nanostar; both purified

| binding [1] | binding [2] | Binder |
| --- | --- | --- |
| binds |  | B1 |
|  | no binding (tested: 90 μM) | B2 |
